Data taken from US20170089928A1 (SYSMEX, published 2017).
These are yes or no findings as the source states them, for the method shown. Some binding calls cover weakened binding; strength is not graded here.

Chains of the proteins cited; added tags and fusions are not shown. Residues count along the entry.
UniProt P02769, residues 25-607: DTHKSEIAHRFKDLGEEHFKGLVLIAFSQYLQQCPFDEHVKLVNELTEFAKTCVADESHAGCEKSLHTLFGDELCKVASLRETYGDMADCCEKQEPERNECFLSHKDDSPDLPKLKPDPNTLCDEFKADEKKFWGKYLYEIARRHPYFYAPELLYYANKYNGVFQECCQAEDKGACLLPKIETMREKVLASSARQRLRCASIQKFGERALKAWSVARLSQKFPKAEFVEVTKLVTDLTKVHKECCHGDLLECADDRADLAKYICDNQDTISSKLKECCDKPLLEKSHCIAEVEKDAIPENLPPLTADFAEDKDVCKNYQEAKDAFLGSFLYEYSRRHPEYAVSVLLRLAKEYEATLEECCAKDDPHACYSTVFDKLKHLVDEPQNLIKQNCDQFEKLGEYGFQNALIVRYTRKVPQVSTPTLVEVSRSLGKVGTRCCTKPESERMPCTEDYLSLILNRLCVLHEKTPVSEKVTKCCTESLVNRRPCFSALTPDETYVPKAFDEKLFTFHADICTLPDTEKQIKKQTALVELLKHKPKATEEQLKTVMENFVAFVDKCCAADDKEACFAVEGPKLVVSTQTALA

Key:
[1] = biological target: T1, partial dynorphin A peptide consisting of amino acids of positions 1 to 13 of dynorphin A; experiment: turbidity, OD550
T1 sequence (peptide): YGGFLRRIRPKLK

[2] = biological target: T1, partial dynorphin A peptide consisting of amino acids of positions 1 to 13 of dynorphin A; experiment: turbidity (OD550), Hill plot analysis
[3] = biological target: T2, fragment of ITIH4 (positions 611 to 642); experiment: turbidity (OD550), Hill plot analysis
T2 sequence (peptide): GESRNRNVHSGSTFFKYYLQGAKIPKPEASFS

[4] = biological target: T3, fragment of kininogen (positions 439 to 457); experiment: turbidity (OD550), Hill plot analysis
T3 sequence (peptide): HNLGHGHKHERDQGHGHQR

Measured: binding

Heat-denatured BSA (bovine serum albumin autoclaved for 15 minutes) (from UniProt P02769 25-607)
binds: [1] | [2] | [3] | [4]
